Measured values from the supplement of paper PMC10689618.
Where a name gives a salt, the structure may show the parent alone. The list shows a part of the results. Repeats are few or missing, and single values can be far off.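 Labelled rat cortical synaptosomes were engulfed by primary human fetal astrocytes. Engulfment equaled a red/green ratio, corrected for calcein live-cell signal and normalized to the plate median. Compounds were toxic when calcein dropped over 30%, and reduced phagocytosis when below 70% of the median above 5 µM.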

Legend:
Details in all cases: 24 h
Human fetal astrocytes [1] = assay: loss of total cells relative to no-compound high-control median (toxicity); higher = more toxic (fewer cells)
Human fetal astrocytes [2] = assay: synaptosome phagocytosis (pHrodo/calcein intensity ratio) relative to plate median of data wells; higher = more phagocytosis
Human fetal astrocytes [3] = assay: loss of total cells relative to no-compound high-control median (toxicity); higher = more toxic (fewer cells); remark: listed apart in the source

SMILES	loss of total cells (Human fetal astrocytes [1]; 1.39 µM) [%]	loss of total cells (Human fetal astrocytes [1]; 2.78 µM) [%]	loss of total cells (Human fetal astrocytes [1]; 5.56 µM) [%]	loss of total cells (Human fetal astrocytes [1]; 11.11 µM) [%]	loss of total cells (Human fetal astrocytes [1]; 22.22 µM) [%]	synaptosome phagocytosis (Human fetal astrocytes [2]; 1.39 µM) [%]	synaptosome phagocytosis (Human fetal astrocytes [2]; 2.78 µM) [%]	synaptosome phagocytosis (Human fetal astrocytes [2]; 5.56 µM) [%]	synaptosome phagocytosis (Human fetal astrocytes [2]; 11.11 µM) [%]	synaptosome phagocytosis (Human fetal astrocytes [2]; 22.22 µM) [%]	loss of total cells (Human fetal astrocytes [3]; 1.39 µM) [%]	loss of total cells (Human fetal astrocytes [3]; 2.78 µM) [%]	loss of total cells (Human fetal astrocytes [3]; 5.56 µM) [%]	loss of total cells (Human fetal astrocytes [3]; 11.11 µM) [%]	loss of total cells (Human fetal astrocytes [3]; 22.22 µM) [%]
NC(=O)COc1c(F)cc(SCCNS(=O)(=O)c2ccccc2)cc1F	1.4	-4.1	3.3	11.4	10.3	66	88.8	91.5	104	76.6					
CC[C@@]1(O)C[C@H](O[C@H]2C[C@H](N(C)C)[C@H](O)[C@H](C)O2)c2c(cc3c(c2O)C(=O)c2c(O)ccc(O)c2C3=O)[C@H]1C(=O)OC											14.1	10	43.5	8.4	26.3
C[C@]12CC[C@H](OS(=O)(=O)O)CC1=CC[C@@H]1[C@@H]2CC[C@]2(C)C(=O)CC[C@@H]12 [Dehydroisoandrosterone 3-sulfate sodium]	6.3	-12	-3.3	5.8	-11.2	119	105	115	131	103					
C=C(C)[C@@H]1[C@H]2OC(=O)[C@@H]1[C@]1(O)C[C@H]3O[C@]34C(=O)O[C@H]2[C@]14C											6.9	18.4	6.5	11.3	17.4
CN(C(=O)Cc1ccc(Cl)c(Cl)c1)C(CN1CCCC1)c1cccc(OCC(=O)O)c1 (configuration not stated) [ICI 204,448 hydrochloride]	-1.4	10.4	-9.9	1	-19.6	103	85.1	91.3	112	109					
O=C(O)[C@@H]1[C@H](C(=O)O)[C@H]2CC[C@@H]1O2 [Endothall]	-10.5	-0.9	-4.1	-9.4	3.2	65	84.2	99	119	118					
Clc1ccc(N2CC3CCC(C2)N3)nn1	2.1	-13.7	3.3	-3.1	12	97.9	105	105	97.7	120					
C[N+]1(C)CCN(c2ccccc2)CC1 [1,1-Dimethyl-4-phenyl-piperazinium iodide]					4.8					90.6					
CN1[C@@H]2CC[C@H]1C[C@@H](OC(=O)c1cc(Cl)cc(Cl)c1)C2 [3-Tropanyl-3,5-dichlorobenzoate]	-21.4	-13.5	4.5	-7.3	5.8	109	97.1	87.6	88.1	80.3					
c1ccc2c(N3CCNCC3)cccc2c1 [1-(1-Naphthyl)piperazine hydrochloride]	-29.5	-12.3	-5.6	-1.9	-18.1	109	116	116	108	100					
C=C(C)[C@@H]1[C@H]2OC(=O)[C@@H]1[C@]1(O)C[C@H]3OC34C(=O)O[C@H]2[C@@]41C.CC(C)(O)[C@@H]1[C@H]2OC(=O)[C@@H]1[C@]1(O)C[C@H]3OC34C(=O)O[C@H]2[C@@]41C (some centres not stated) [Picrotoxin]	-10.9	-5	-2.3	13.3	-1.9										
Cc1nc(-c2ccc(-c3ccc(C(=O)N4CCc5cc6c(cc54)C4(CCN(C)CC4)CO6)cc3)c(C)c2)no1	-46.3	-23.7	-3.4	-7.3	33.7	89.9	98.1	79.7	90.9	26.3					
